# Test results reported in PubChem BioAssay AID1347076 (National Center for Advancing Translational Sciences (NCATS), 2019).
# The whole screen tested about 400,000 compounds, of which about 13,000 (3.2%) were called active. The shares of active, inactive and inconclusive entries below differ from those in the screen. The call rests on the fitted dose curve; in most records, active means well fitted cell-killing curve with a large enough effect; inconclusive means small, poorly fitted or top-dose-only effect, or effect the other way; inactive means flat fitted curve, though single readings scatter. Potencies beside an inconclusive call are fits to weak or partial responses and may not hold up.
# Assay: qHTS assay for MDR1-selective chemotherapeutics: Primary screen using the drug-selected MDR subline cells KB-V1; further: nearly all actives have a fitted effect of over 60% in size
# Details: KB-V1 MDR cells viability, CellTiter-Glo, 72 h; activity change, negative = cytotoxicity: at 46.1 µM (top of the series)
# Method in brief: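 In this primary screen, KB-V1 cells overexpressing P-gp are incubated with library compounds (lowest to highest concentration) for 72 h at 37 degrees C before a luminescent ATP viability read.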
# On the % scale 0 is the no-effect control and ±100 the full control effect; potency means the concentration at half of the fitted maximal effect.
SMILES,Potency,"activity change, negative = cytotoxicity"
Cc1ccc(NC(=O)c2ccc(S(=O)(=O)N3CCCCCC3)cc2)nc1,"inconclusive: 13 µM [cytotoxic, partial curve]",
O=C(CSc1ccc(Br)cc1)NCC(c1ccco1)N1CCCCC1 (stereo not given),"inconclusive: 9.2 µM [cytotoxic, partial curve]",
O=C(CSC1=NCCN1)C1COc2ccccc2O1 (stereo not given),"inconclusive: 20.6 µM [cytotoxic, single point]",
CCCCn1c(N)c(N(CCOC)C(=O)CCS(=O)(=O)c2ccc(C)cc2)c(=O)[nH]c1=O,"inconclusive: 16.4 µM [rising, partial curve, poor fit]",
Cc1nn(-c2nnc(NCc3ccccc3)nn2)c(C)c1Br,active: 20.6 µM,
Brc1ccc(-c2nnc(-c3ccccc3)c(N3CCSCC3)n2)cc1,"inconclusive: 11.6 µM [cytotoxic, partial curve]",
CN(C)S(=O)(=O)c1ccc(Cl)c(C(=O)OCC(=O)NNC(=O)c2cccs2)c1,"inconclusive: 20.6 µM [rising, single point]",
O=C(CCN1C(=O)C2C3C=CC(C3)C2C1=O)Oc1ccc2ccccc2c1 (stereo not given),"inconclusive: 2.91 µM [rising, full curve]",
CCOC(=O)N1CCN(c2c(NCCN(C)Cc3ccccc3)c(=O)c2=O)CC1,"inconclusive: 20.6 µM [rising, single point]",
Cc1ccccc1-n1c(=O)c2c(n3cnnc13)-c1ccccc1CC21CCCCC1,"inconclusive: 14.6 µM [cytotoxic, partial curve]",
N/C(=N/O)c1nc(N2CCCC2)nc(N(c2ccccc2)c2ccccc2)n1,"inconclusive: 18.4 µM [cytotoxic, single point]",
CN(C(=O)COC(=O)CCc1c[nH]c2ccccc12)c1ccccc1,"inconclusive: 8.2 µM [rising, partial curve, poor fit]",
C1=C(CCNc2ncnc3c2[nH]c2ccccc23)CCCC1,"inconclusive: 2.31 µM [cytotoxic, partial curve, poor fit]",
Cc1cccc(NS(=O)(=O)c2ccc3[nH]c(=O)oc3c2)c1C,"inconclusive: 32.6 µM [rising, single point]",
CCOC(=O)[C@@H]1[C@H]2COc3ccc(Br)cc3[C@H]2N2C(=O)N(c3ccc(C)cc3)C(=O)[C@@]12C,"inconclusive: 16.4 µM [rising, single point]",
Cc1ccc(-n2ncc(C(=O)NCCN3CCc4ccccc4C3)c2C2CCNCC2)cc1C,"inconclusive: 20.6 µM [rising, single point]",
COCCCN(Cc1cc(OC)c(OC)c(OC)c1)C(=S)Nc1cccc(SC)c1,"inconclusive: 6.51 µM [cytotoxic, full curve, poor fit]",
CCN(CC)CCC=C(c1cccs1)c1cccs1,inactive,
O=c1[nH]c(C2CCN(S(=O)(=O)c3cccc(C(F)(F)F)c3)CC2)nc2c1nnn2Cc1cccc(F)c1,"inconclusive: 20.6 µM [cytotoxic, single point]",
COC(=O)c1ccccc1NC(=O)CSc1nnc(-c2ccoc2C)n1C,"inconclusive: 29.1 µM [cytotoxic, partial curve, poor fit]",
CC1(C)Cc2c(sc3ncnc(NNC(=S)NCc4ccccc4)c23)CO1,"inconclusive: 4.11 µM [cytotoxic, full curve]",
CCOC(=O)c1sc(NC(=O)CCN2C(=O)c3cccc([N+](=O)[O-])c3C2=O)c(C(=O)OCC)c1C,"inconclusive: 16.4 µM [cytotoxic, partial curve]",

SMILES,Potency,"activity change, negative = cytotoxicity"
COc1ccc2cc(S(=O)(=O)c3ccccc3)c(=O)oc2c1,,inconclusive: -56.7%
CCC(C)NC(=O)c1ccc(N2CCC3(CC2)OCCO3)c([N+](=O)[O-])c1 (stereo not given),"inconclusive: 10.3 µM [cytotoxic, partial curve]",
Cc1ccc(NC(=O)Cn2cnc3sc(C)c(S(=O)(=O)N4CCN(c5ncccn5)CC4)c3c2=O)cc1F,"inconclusive: 1.16 µM [rising, full curve, poor fit]",
COC(=O)C1=C(C)N(C(C)C)C(=O)C1(NC(=O)C1CCCCC1)C(F)(F)F (stereo not given),"inconclusive: 5.17 µM [cytotoxic, partial curve, poor fit]",
COc1ccccc1CNC(=O)C1CCCN(S(C)(=O)=O)C1 (stereo not given),"inconclusive: 16.4 µM [rising, partial curve, poor fit]",
NC(=O)c1ccc(NC(=O)CCCc2nc(-c3ccccc3Cl)no2)cc1,"inconclusive: 23.1 µM [cytotoxic, partial curve, poor fit]",
CCCCCc1nn2cc(-c3ccccc3)nc2s1,inactive,
CCOc1ccc(S(=O)(=O)NCc2ccncc2)cc1NC(=O)c1ccccc1F,"inconclusive: 2.06 µM [cytotoxic, full curve, poor fit]",
Cc1ccc(S(=O)(=O)NNC(=O)c2cnn(-c3ccccc3)c2-n2cccc2)cc1,inactive,
CCC(C)n1c(SCC(=O)NC(=O)Nc2ccc3c(c2)OCCO3)nc2ccccc2c1=O (stereo not given),"inconclusive: 23.1 µM [cytotoxic, partial curve, poor fit]",
N#Cc1c(N2CCSCC2)nsc1-c1ccccc1Cl,active: 4.61 µM,
CCOC(=O)C1(CCCc2ccccc2)CCN(Cc2cnc(C)s2)CC1,"inconclusive: 7.31 µM [cytotoxic, partial curve]",
CN(Cc1cccc2cnccc12)C(=O)c1cc(COc2ccc(F)cc2F)on1,"inconclusive: 2.31 µM [cytotoxic, full curve]",
COc1ccc(/C=C2\SC(=S)N(CCCC(=O)NNC(=O)c3ccccc3O)C2=O)cc1,"inconclusive: 23.1 µM [cytotoxic, partial curve, poor fit]",
CCCCOP(=O)(c1ccc(N(C)C)cc1)C(Nc1ccccc1)c1ccccc1 (stereo not given),active: 3.66 µM,
Cc1cnc(NC(=O)C2CCC(C(C)(C)C)CC2)s1 (stereo not given),"inconclusive: 5.8 µM [cytotoxic, partial curve, poor fit]",
COc1ccc(NC(=O)CSC2=Nc3ccccc3C3=NC(CC(=O)NCc4ccc5c(c4)OCO5)C(=O)N23)cc1 (stereo not given),inactive,
Cc1ccc(S(=O)(=O)c2nc(-c3ccccc3Br)oc2N(C)C)cc1,"inconclusive: 16.4 µM [cytotoxic, partial curve, poor fit]",
O=C(Nc1ccc(Cl)c(Cl)c1)c1ccc(Cn2c(=O)[nH]c3ccsc3c2=O)cc1,inactive,
C=C(C)c1cccc(C(C)(C)NC(=O)Nc2cc(C)ccc2OC)c1,active: 8.2 µM,
Cn1c(CN2CCCCC2)nc2cc(NC(=O)c3ccccc3)ccc21,active: 8.2 µM,
CC(C(=O)Nc1ccc(F)c(F)c1F)N(C)CC(=O)Nc1ccccc1Br (stereo not given),"inconclusive: 20.6 µM [cytotoxic, single point]",

# Grouped by structure, those above containing a CF3 group (two)
SMILES,Potency,"activity change, negative = cytotoxicity"
O=c1[nH]c(C2CCN(S(=O)(=O)c3cccc(C(F)(F)F)c3)CC2)nc2c1nnn2Cc1cccc(F)c1,"inconclusive: 20.6 µM [cytotoxic, single point]",
COC(=O)C1=C(C)N(C(C)C)C(=O)C1(NC(=O)C1CCCCC1)C(F)(F)F (stereo not given),"inconclusive: 5.17 µM [cytotoxic, partial curve, poor fit]",

# Next part:

SMILES,Potency,"activity change, negative = cytotoxicity"
Cc1ccc(C(=O)Nc2ccc(N3CCOCC3)cc2)cc1,"inconclusive: 16.4 µM [cytotoxic, single point]",
CCC(=O)N1CCc2cc(Br)c(S(=O)(=O)NCCN3CCCCC3CC)cc21 (stereo not given),active: 10.3 µM,
Cc1cccc(C)c1NC(=S)NC(=O)CCc1ccccc1,"inconclusive: 8.2 µM [cytotoxic, partial curve]",
Cc1ccc(C2C=C(c3ccc(Cl)cc3)Nc3nc(NC(=O)c4ccco4)nn32)cc1 (stereo not given),"inconclusive: 23.1 µM [cytotoxic, single point]",
O=C(CN1CCN(S(=O)(=O)c2ccc(F)c(Cl)c2)CC1)N1CCc2ccccc21,active: 3.26 µM,
Cc1nc2ccc(S(=O)(=O)Nc3cc(-c4nc5cccnc5s4)ccc3C)cc2s1,"inconclusive: 25.9 µM [cytotoxic, partial curve, poor fit]",
CCOC(=O)c1ccc(NC(=O)CSC2=NN3CCCC(=O)N=C3S2)cc1,inactive,
O=C(Nc1nnc(C2CC2)s1)c1ccc(Cl)nc1,"inconclusive: 20.6 µM [rising, single point]",
Cc1cc(NC(=O)COc2ccccc2C#N)no1,"inconclusive: 20.6 µM [rising, single point]",
CCOC(=O)CS(=O)(=O)c1nc(-c2ccc(F)cc2)cc(C(F)(F)F)n1,inactive,
CCc1nn(Cc2c(C)cc(C)cc2C)c(=O)c2cc3cc(C)ccc3n12,"inconclusive: 20.6 µM [rising, partial curve, poor fit]",
CCC(Sc1nc2ncccc2[nH]1)C(=O)NCCc1ccccc1 (stereo not given),inactive,
N#C/C(=C(/O)CCl)c1nc2c(s1)CCc1ccccc1-2,active: 14.6 µM,
Cc1cc(C(=O)Nc2ccc3c(c2)OCCO3)co1,"inconclusive: 23.1 µM [cytotoxic, partial curve, poor fit]",
CNc1snc(C)c1C(=O)OCC(=O)N(C)Cc1ccccc1,"inconclusive: 20.6 µM [cytotoxic, single point]",
C[C@@H]1CN([C@@H](C)CO)C(=O)c2cc(Br)cnc2O[C@H]1CN(C)C(=O)Cc1ccccn1,inactive,
COc1cc(Nc2ncc3c(n2)CCN(Cc2cc(F)cc(F)c2)C3)cc(OC)c1,active: 8.2 µM,
COc1cc(NC(=O)c2ccccc2)c(C)cc1NC(=O)CC(CC(=O)O)c1ccccc1 (stereo not given),inactive,
O=C(NCCN1CCOCC1)c1cc(-c2ccco2)on1,"inconclusive: 18.4 µM [cytotoxic, partial curve, poor fit]",
O=C(CN1C(=O)/C(=C/c2ccc(F)cc2)SC1=S)NC1CCS(=O)(=O)C1 (stereo not given),"inconclusive: 25.9 µM [rising, single point]",
CC1CN(C(=O)CCC(=O)NCc2ccccc2)c2cc(Cl)ccc2O1 (stereo not given),"inconclusive: 1.64 µM [cytotoxic, partial curve, poor fit]",

# Filtered by structure, those above containing a cyano group (3)
SMILES,Potency,"activity change, negative = cytotoxicity"
N#Cc1c(N2CCSCC2)nsc1-c1ccccc1Cl,active: 4.61 µM,
Cc1cc(NC(=O)COc2ccccc2C#N)no1,"inconclusive: 20.6 µM [rising, single point]",
N#C/C(=C(/O)CCl)c1nc2c(s1)CCc1ccccc1-2,active: 14.6 µM,
